At least one compound was matched to its structure with a doubt left.
Assays:
LNCaP cells [1] = assay: Cell counts and viability of LNCaP cells after culture with iron chelator; type: cell-based; conditions: DFO 2.5 micrograms/ml, 72 hours
Method: (§1) Comment: Table 2 is data from one of three similar experiments in which cells were cultured for 72 hours following the methods described in the proposal (i.e., cells in 6-well plates for PSA studies and cells in 96-well plates for thymidine incorporation, both at the same cell concentration). […] For viable cells, the per cell production of PSA rose 33.6% (column 8: PSA value of 1.5×10E7 molecules per cell divided by control value of 1.13×10E7). […]

[2] = consecutive eight hour intravenous infusions of DFO, Phase II trial (Dreicer et al.); cited from earlier work
LNCaP cells [3] = assay: PSA assay on tissue culture supernatants of LNCaP cells cultured with iron chelator; type: cell-based; conditions: tissue culture studies, deferoxamine-induced iron deprivation
Method: as §1

CC(=O)N(O)CCCCCNC(=O)CCC(=O)N(O)CCCCCNC(=O)CCC(=O)N(O)CCCCCN [Desferal, Deferoxamine]
effect on cell viability (in words) (LNCaP cells [1]; listed as DFO): no loss of viability
effect on cell viability (in words) (LNCaP cells [1]; listed as DFO mesylate): did not produce any significant change in overall cell viability
PSA levels in prostate cancer patients under DFO treatment [2]: rising PSA levels in eight out of nine patients
PSA secretion per cell (in words) (LNCaP cells [3]): increased PSA secretion per cell

Reference: patent publication US6352834B1, “Prostate cancer assays and related methods” (University of Iowa Research Foundation, priority 1998, dated 2002)
